Values from PubChem BioAssay AID1508588 (Peter MacCallum Cancer Centre, 2020)
The whole screen tested about 18,000 reagents; below is a random part of them. 790 of all reagents (4.4%) count as active. 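Calls rest on a combination of fold-change classes in drug and vehicle arms, not all shown here.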 A number with no mark means an inactive call. Reagent sequences are not shown.

- Purpose: 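Knock-downs boosting vemurafenib effects on melanoma cell growth or lactate release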 (primary screen)
- Cells: human WM266.4 melanoma cells (BRAF V600 mutant)
- Reagent: siRNA pool against human genes, 40 nM
- Duration: 96 h from transfection to read-out
- Challenge: vemurafenib 300 nM (about IC25), added 48 h after transfection, for 48 h; comparison arm got DMSO vehicle only
- Measurement: 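Ratios to non-targeting siRNA for cell gain, counted as DAPI nuclei after minus before drug and averaged over two replicates, and for absorbance-read medium lactate per cell; both binned into fold-change classes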
- Direction: cell gain with vemurafenib: higher = more cell gain than with non-targeting siRNA; lactate per cell with vemurafenib: higher = more lactate made per cell
- Active means: 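a knock-down counts as enhancing when its fold-change classes with vehicle and with vemurafenib, taken together, show a stronger drug effect on cell gain or lactate per cell; exact class pairs not stated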
- Meaning of the calls: active = enhances vemurafenib effect; inactive = no enhancement seen

gene,cell gain with vemurafenib,lactate per cell with vemurafenib
ZPBP2,0.92,0.87
NXPH4,0.54,1.6
UNC5A,0.96,0.93
BICD2,0.36,0.8
H3C3,0.18,1.77
ZNF583,0.18,1.45
RAB29,0.62,0.76
DEFB124,0.49,1.41
EID3,0.35,1.44
LMX1A,0.65,1.09
OR10P1,0.54,0.77
SMIM21,0.7,1.17
BAGE5,0.81,1.12
ANKZF1,-0.12,1.29
ROBO2,0.74,0.64
HNRNPA1,1.38,0.56
AP5B1,1.1,0.46
TBC1D32,0.84,0.98
CRYZL1,0.67,0.58
RPL13A,-0.12,2.06
OR5H15,0.32,2.26
LZTS1,-0.05,2.12
GABBR1,0.76,0.56
NADK,0.35,0.62
ZNF875,1.25,0.49
DCX,0.48,1.04
CORO6,0.82,1.21
KLC2,0.22 (active),0.36
AP2A1,0.07,0.6
FNDC4,0.34,1.7
ZC3H10,0.28,1.13
H3C2,1.23,1.12
PSMD14,-0.08,3.49
MMP28,0.31,1.64
IFNAR2,0.92,0.64
CD2AP,0.55 (active),0.46
LIMS3,0.85,1.31
EXPH5,0.42,1.56
SPRED1,0.75,1.04
WNT3,0.48,1.77
ZHX1,0.39 (active),0.67
ADAM17,0.85,0.84
FUBP1,1.04,0.6
DDX56,0.61,1.06
RAB23,0.94,1.39
ZSWIM2,1.04,0.74
OLFM3,0.39,0.86
NRIP2,0.47,1.56
STOML1,0.16,3
CYP51A1,0.88,0.78
LIN9,0.49,1.49
PRXL2C,0.2 (active),0.47
GZMM,0.64,1.52
ZNF607,0.51,0.91
ARHGAP15,0.99,0.85
SALL1,0.12,1.97

The list goes on (11 carried over from the part before).
gene,cell gain with vemurafenib,lactate per cell with vemurafenib
ZSWIM2,1.04,0.74
OLFM3,0.39,0.86
NRIP2,0.47,1.56
STOML1,0.16,3
CYP51A1,0.88,0.78
LIN9,0.49,1.49
PRXL2C,0.2 (active),0.47
GZMM,0.64,1.52
ZNF607,0.51,0.91
ARHGAP15,0.99,0.85
SALL1,0.12,1.97
NBPF8,0.46,1.02
PFN2,0.75,0.8
SCRIB,0.71,0.6
ZBTB12,1.49,0.68
KIF16B,0.44,1.06
CD96,0.76,0.68
BEST2,0.89,0.94
ASMTL,0.47,0.93
TRAF4,1.02,0.59
PSMC3,-0.18,3.47
MFAP3L,0.34,0.58
NBEA,0.56,0.82
ARAP3,0.28,1.86
MRPL44,0.74,1.12
PRAG1,0.46,1.27
MEOX1,1.23,0.66
LOC652591 (retired record),0.56,0.76
PIGN,0.83,0.76
TSC22D4,0.73,0.62
PZP,0.73,1.1
CYP4F11,0.7,0.82
ARHGAP11B,0.63,0.7
OR2D2,1,1.22
FDX1,0.71,0.92
PKD1,0.49,1.38
C1QL2,0.64,0.55
ZNF536,0.9,1.2
MYT1,0.48,0.62
